Laboratory results reported in doi:10.1101/2024.10.21.619442.
These are yes or no findings as the source states them, for the method shown. Binding seen in cells or lysates may run through a third protein. A result given as binding can be weak or reduced; the word gives no strength.

The chains behind the UniProt entries cited, without tags or fusion partners.
UniProt P35222: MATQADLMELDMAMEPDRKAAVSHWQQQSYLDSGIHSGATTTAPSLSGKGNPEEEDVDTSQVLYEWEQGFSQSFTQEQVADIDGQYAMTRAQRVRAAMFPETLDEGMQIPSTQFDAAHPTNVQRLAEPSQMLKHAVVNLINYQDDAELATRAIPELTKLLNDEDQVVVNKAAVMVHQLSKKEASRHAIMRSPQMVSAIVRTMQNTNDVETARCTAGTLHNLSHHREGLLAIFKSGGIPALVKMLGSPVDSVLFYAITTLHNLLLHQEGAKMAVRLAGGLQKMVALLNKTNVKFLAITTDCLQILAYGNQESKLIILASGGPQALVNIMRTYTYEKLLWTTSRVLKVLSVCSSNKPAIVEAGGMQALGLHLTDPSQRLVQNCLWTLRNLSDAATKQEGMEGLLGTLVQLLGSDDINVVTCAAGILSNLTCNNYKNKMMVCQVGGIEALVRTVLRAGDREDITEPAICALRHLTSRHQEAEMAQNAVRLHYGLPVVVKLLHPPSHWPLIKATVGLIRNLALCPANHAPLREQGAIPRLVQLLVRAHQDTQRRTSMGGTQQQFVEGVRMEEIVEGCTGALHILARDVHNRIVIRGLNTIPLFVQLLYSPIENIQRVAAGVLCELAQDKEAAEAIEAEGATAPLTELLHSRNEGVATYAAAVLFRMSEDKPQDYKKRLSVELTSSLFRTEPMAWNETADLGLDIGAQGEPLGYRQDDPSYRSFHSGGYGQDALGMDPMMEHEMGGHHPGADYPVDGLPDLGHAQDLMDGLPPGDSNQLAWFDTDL

What was measured:
[1] = target: endogenous β-catenin (human (endogenous in HEK293T)) (UniProt P35222); experiment: co-IP
[2] = target: V5-tagged FBXW11^WT (human) (UniProt E5RGC1); experiment: co-IP

V5-tagged FBXW11^WT (from UniProt E5RGC1)
binding [1]: binds

Flag-tagged β-catenin (from UniProt P35222 1-781)
binding [2]: binds
